According to patent publication US6372727B1, “Metalloporphyrin treatment of neurologic disease” (UAB Research Foundation, priority 1999, dated 2002):

Assay: MP-catalyzed peroxynitrite decomposition monitored at 302 nm
Format: biochemical
Conditions: for peroxynitrite decomposition slower than the MP's oxidation by peroxynitrite: absence of ascorbate
Experimental: Peroxynitrite (100 μM) was added to rapidly stirred cuvettes at 37° C. containing the indicated concentrations of MPs in 0.1 M potassium phosphate, pH 7.4. Ascorbate was added to 150 μM where indicated. Peroxynitrite decomposition was monitored at 302 nm using a Hewlett-Packard diode-array spectrophotometer. Apparent rates (kapparents^−1, average of n=3) were plotted versus MP concentration to determine rate constants in M^−1s^−1.
Reactions contained the indicated concentration of FeTCPPin 1.4 ml of 0.1 M potassium phosphate, pH 7.4 in the absence or presence to 150 μM ascorbic acid. Peroxynitrite (100 μM) was added to rapidly stirred cuvettes at 37° C. and the decay of peroxynitrite was monitored continuously at 302 nm. Decay data were fitted to the equation describing first order decay to obtain apparent decay rates (kapparent sec^−1). Apparent decay rates as a function of FeTCPP were fitted by linear regression and the rate constant was obtained slope of the line.
Peroxynitrite (100 μM) decomposition was determined at 302 nm using a Hewlett-Packard diode-array spectrophotometer fitted with a temperature-controlled cuvette chamber and a water-driven cuvette stirrer. Bolus additions of peroxynitrite were made to vigorously stirred cuvettes containing varying concentrations of MPs (see Table III) while data were collected at a rate of ten points/sec. […] Each reaction was repeated three times and only the first additions of peroxynitrite were averaged. Data were exported for fitting and plotting. Apparent rates of peroxynitrite decomposition were plotted as a function of metalloporphyrin concentration (as shown in FIG. 5) to determine concentration-independent rate constants at 37° C.
Rates of peroxynitrite (100 μM) decomposition were determined at different MP concentrations. Ascorbate was added to 150 μM where indicated. […] Apparent rate constants were plotted versus MP concentration (as in FIG. 5A,B) to determine true rate constants in M^−1s^−1±standard error.

## C=CC1=C(C)c2cc3[n-]c(cc4nc(cc5[n-]c(cc1n2)c(C)c5CCC(=O)O)C(CCC(=O)O)=C4C)c(C)c3C=C.[Fe] [FePPIX, Iron (III) protoporphyrin IX dichloride]
  peroxynitrite decomposition slower than the MP's oxidation by peroxynitrite: 2.8 fold

## C[n+]1ccc(-c2c3nc(c(-c4cc[n+](C)cc4)c4ccc([n-]4)c(-c4cc[n+](C)cc4)c4nc(c(-c5cc[n+](C)cc5)c5ccc2[n-]5)C=C4)C=C3)cc1.[Cl-].[Cl-].[Cl-].[Cl-].[Cl-].[Mn+3] [MnTMPyP, Manganese (III) meso-tetra-(N-methyl-4-pyridyl)-porphine chloride]
150 μM ascorbate
  peroxynitrite decomposition faster than in the absence of ascorbate: 38 fold
  peroxynitrite decomposition slower than the MP's oxidation by peroxynitrite: 76 fold
Presence of ascorbate
  peroxynitrite decomposition slower than the stoichiometric oxidation by peroxynitrite: 2 fold
